Source: article PMC4958304
These are yes or no findings as the source states them, for the method shown. In cells and extracts the contact can be indirect. Some results given as binding are weak or reduced against the parent protein; the word gives no strength.

Amino acid sequences for entries named in this document (tags omitted).
UniProt A1ZAU8: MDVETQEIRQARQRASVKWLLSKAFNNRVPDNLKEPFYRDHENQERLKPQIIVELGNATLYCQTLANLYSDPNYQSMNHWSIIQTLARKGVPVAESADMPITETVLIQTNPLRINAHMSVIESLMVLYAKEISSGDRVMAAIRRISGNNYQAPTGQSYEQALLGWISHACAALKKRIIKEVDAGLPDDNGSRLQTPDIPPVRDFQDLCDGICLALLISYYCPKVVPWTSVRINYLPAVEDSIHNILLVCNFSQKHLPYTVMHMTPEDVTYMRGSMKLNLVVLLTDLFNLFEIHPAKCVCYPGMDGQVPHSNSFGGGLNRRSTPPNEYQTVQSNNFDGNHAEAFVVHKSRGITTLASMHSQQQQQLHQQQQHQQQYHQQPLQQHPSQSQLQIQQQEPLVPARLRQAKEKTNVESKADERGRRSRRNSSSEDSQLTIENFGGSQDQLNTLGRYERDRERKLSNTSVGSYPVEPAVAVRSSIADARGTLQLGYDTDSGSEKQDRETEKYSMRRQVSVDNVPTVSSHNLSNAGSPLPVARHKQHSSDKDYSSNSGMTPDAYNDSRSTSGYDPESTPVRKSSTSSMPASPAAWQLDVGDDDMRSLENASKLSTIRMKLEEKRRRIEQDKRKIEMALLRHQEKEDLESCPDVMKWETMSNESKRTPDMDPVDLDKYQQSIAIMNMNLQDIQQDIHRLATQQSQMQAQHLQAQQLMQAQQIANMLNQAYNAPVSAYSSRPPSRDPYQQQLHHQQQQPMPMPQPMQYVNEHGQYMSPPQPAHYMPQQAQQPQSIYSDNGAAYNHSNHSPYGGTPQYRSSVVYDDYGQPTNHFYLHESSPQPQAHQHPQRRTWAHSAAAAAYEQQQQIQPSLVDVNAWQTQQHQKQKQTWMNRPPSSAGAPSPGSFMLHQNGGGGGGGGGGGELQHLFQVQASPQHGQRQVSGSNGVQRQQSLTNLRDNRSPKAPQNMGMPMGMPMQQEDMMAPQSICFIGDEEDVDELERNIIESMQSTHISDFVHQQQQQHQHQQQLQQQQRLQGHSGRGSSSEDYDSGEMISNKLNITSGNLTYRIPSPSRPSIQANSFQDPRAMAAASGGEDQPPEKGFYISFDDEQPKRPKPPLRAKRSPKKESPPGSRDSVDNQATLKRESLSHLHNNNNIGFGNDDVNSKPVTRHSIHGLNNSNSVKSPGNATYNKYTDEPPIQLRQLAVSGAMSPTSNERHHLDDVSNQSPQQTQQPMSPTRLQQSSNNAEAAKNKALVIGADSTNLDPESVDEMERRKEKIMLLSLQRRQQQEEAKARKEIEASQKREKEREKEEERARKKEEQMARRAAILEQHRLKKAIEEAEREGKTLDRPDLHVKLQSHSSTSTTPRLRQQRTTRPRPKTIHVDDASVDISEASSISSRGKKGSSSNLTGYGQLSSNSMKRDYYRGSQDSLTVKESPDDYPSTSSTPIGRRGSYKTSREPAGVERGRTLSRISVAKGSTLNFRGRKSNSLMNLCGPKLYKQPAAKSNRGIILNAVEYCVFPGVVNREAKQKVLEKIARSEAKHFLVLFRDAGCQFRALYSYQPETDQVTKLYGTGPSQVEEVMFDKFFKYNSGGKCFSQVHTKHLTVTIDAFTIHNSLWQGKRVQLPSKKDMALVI
UniProt P13395: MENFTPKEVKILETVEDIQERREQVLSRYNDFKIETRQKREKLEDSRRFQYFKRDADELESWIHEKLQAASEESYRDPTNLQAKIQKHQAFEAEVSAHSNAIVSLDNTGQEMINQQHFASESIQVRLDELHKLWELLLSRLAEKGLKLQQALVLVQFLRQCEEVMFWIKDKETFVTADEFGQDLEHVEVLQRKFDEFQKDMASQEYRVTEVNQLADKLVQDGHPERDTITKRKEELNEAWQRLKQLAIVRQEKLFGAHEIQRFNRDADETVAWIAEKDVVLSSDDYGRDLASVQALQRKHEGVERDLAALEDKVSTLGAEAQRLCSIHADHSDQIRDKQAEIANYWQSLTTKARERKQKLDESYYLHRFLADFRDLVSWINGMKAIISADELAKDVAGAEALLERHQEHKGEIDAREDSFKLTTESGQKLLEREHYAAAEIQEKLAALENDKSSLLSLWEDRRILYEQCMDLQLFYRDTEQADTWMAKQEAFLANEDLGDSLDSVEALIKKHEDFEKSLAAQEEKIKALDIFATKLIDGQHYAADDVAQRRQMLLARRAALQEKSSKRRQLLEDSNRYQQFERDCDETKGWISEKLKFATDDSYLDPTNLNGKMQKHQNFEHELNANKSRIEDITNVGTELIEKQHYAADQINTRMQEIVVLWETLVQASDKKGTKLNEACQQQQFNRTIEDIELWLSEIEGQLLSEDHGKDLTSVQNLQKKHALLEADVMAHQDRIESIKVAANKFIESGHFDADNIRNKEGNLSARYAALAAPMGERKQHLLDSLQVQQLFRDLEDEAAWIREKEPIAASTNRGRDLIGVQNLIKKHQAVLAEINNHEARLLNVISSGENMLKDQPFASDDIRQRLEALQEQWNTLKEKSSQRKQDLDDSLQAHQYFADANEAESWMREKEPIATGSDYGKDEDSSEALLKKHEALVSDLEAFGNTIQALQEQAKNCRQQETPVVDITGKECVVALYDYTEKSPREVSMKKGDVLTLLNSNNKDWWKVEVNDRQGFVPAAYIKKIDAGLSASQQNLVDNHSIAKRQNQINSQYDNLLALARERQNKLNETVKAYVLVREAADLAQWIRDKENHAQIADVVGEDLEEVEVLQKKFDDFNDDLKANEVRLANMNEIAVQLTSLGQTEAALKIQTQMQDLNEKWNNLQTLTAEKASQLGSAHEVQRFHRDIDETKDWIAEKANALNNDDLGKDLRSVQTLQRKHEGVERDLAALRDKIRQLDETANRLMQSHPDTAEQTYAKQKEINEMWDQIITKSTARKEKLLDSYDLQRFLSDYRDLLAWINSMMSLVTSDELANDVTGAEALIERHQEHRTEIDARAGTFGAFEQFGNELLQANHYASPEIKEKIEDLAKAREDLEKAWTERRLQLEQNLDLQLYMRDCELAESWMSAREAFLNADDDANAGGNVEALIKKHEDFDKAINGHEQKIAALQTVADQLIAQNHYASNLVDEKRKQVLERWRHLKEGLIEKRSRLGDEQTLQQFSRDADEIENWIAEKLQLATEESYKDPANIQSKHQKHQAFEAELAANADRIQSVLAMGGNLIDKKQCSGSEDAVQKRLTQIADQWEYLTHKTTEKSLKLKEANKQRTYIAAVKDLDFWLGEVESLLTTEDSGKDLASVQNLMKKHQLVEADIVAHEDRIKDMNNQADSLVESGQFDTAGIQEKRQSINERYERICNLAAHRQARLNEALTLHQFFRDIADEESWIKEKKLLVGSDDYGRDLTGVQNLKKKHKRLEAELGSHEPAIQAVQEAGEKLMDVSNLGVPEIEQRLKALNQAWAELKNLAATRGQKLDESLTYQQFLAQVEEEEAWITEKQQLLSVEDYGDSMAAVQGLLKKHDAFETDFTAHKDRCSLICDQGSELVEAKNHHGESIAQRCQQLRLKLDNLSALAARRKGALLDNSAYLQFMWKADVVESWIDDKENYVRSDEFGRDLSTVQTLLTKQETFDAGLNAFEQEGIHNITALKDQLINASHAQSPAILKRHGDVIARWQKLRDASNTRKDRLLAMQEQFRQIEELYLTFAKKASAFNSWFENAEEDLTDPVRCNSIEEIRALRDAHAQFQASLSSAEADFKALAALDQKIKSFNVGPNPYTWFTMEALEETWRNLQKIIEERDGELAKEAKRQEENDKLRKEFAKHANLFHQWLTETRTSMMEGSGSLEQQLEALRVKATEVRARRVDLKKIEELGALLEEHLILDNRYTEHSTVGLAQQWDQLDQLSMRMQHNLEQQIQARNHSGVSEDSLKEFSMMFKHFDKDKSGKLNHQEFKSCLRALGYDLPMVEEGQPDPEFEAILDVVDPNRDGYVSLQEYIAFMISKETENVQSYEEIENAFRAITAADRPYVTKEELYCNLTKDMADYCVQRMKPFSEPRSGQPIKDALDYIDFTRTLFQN

How the values were obtained:
[1] = target: Patronin–GFP (Drosophila melanogaster) (UniProt A1ZAU8); assay: co-IP; Drosophila embryo lysates (10 mM Tris-HCl pH 7.5, 150 mM NaCl, 0.5% NP-40, 0.5 mM EDTA, phosphatase and protease inhibitors), pre-cleared, YFP- or GFP-tagged bait captured on GFP Trap-M beads; preys detected by western blot
[2] = target: Shot–GFP (Drosophila melanogaster) (UniProt A1Z9J1); assay: as above

Row | Substance | binding [1] | binding [2]
1 | Shortstop (from UniProt A1Z9J1 1-5501) | binds | –
2 | α-Spectrin (from UniProt P13395 1-2415) | binds | binds
